Some of the results follow. Further columns of the screen follow, without active or inactive calls. The list favours compounds with an active or inconclusive main result. The note in brackets gives the kind of curve behind each potency; many fits are weak.
Test: qHTS Assay for Lipid Storage Modulators in Drosophila S3 Cells;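 on cell number change: cells counted by Cell Tracker Red CMTPX staining in the red channel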
Conditions: BODIPY lipid droplet fluorescence, 18-24 h; for cell number change: measured here: cell count max response, cells fed with added oleic acid
In short: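 Drosophila S3 cells loaded with oleic acid (400 uM, as added) and compounds at several concentrations; lipid droplets imaged by 488-nm laser-scanning cytometry, 500–530 nm intensity and object ratio to cell channel. Percent activity normalized to 20 uM Triacsin C.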

[1] = measured here: cell number channel AC50, cells fed with added oleic acid
[2] = measured here: lipid fluorescence (Fed channel) AC50, cells fed with added oleic acid

SMILES | cell number change [%] | AC50 [1] | AC50 [2]
Cc1cc(C)c2c(N)c(C(=O)NC3CCCC3)sc2n1 | -2.11 | 2.06 µM [rising, single point] | –
Cc1cc(C)n(-c2ccc(C(=O)N3CCN(S(=O)(=O)c4ccc(C(C)C)cc4)CC3)cc2)n1 | 0.0705 | – | 1.03 µM [rising, full curve, poor fit]
O=[N+]([O-])c1cc(C(F)(F)F)ccc1Sc1ccccn1 | 20.3 | – | 11.6 µM [rising, partial curve]
c1ccc(CN2CCC(N3CCC(N4CCCCCC4)CC3)CC2)cc1 | – | – | 0.651 µM [falling, partial curve, poor fit]
CN(CC(=O)NCC(c1ccccc1)N1CCCC1)S(=O)(=O)c1ccc(Cl)cc1 (stereo unspecified) | 14.5 | – | 0.13 µM [rising, full curve, poor fit]
C=CCSc1nnc(NC(=O)CSc2ccccn2)s1 | -18 | 0.116 µM [falling, full curve, poor fit] | –
Cc1noc(C)c1COc1ccc(C(=O)Nc2nnc(CC(C)C)s2)cc1 | -14.1 | – | 2.59 µM [falling, full curve]
OC(CNC1CCCc2ccccc21)COc1c(Cl)cccc1Cl (stereo unspecified) | -23 | – | 13 µM [falling, partial curve]
Cc1nc(N2CCCC2)c2nnn(Cc3ccccc3Cl)c2n1 | -19.9 | – | –
Cc1ccc(OCCCOc2cccc3cccnc23)cc1C | -32.6 | 25.9 µM [falling, single point] | 32.6 µM [falling, single point]
O=C(NCC(=O)N(Cc1ccccc1)C(C(=O)NCC1CCCO1)c1ccccc1)c1ccco1 (stereo unspecified) | -2.56 | – | –
O=C(Nc1cccnc1)c1cc(Br)c(Br)s1 | -38.8 | 11.6 µM [falling, partial curve] | 0.00461 µM [falling, full curve, poor fit]
CCn1ccc(C(=O)Oc2ccc(C(C)C)cc2)n1 | – | – | 6.51 µM [falling, single point]
COc1ccc(N/N=C/c2c(C(=O)O)ccc3ccccc23)cc1 | -11.2 | – | 29.1 µM [falling, single point]
CC(C)c1ccc(NC(=O)COc2ccccc2)cc1 | -0.275 | – | –
CCCN1CCC(=O)N([C@H](CSc2ccccc2)c2ccccc2)CC1 | -23.6 | – | 29.1 µM [falling, single point]
CCn1c(NCCO)nc2c(c1=O)C(C)(CC)Cc1ccccc1-2 (stereo unspecified) | -41 | 6.51 µM [falling, partial curve] | 6.51 µM [falling, single point]
CC(=O)c1c(C)[nH]c(C(=O)CSc2nnc(CN3CCCCCC3=O)n2-c2ccccn2)c1C | -2.52 | – | 14.6 µM [rising, single point]
CN(Cc1ccccn1)C(=O)c1ccc2nc(Cc3cccc(Cl)c3)oc2c1 | -1.47 | – | 29.1 µM [falling, single point]
O=C(NC12CC3CC(CC(C3)C1)C2)C1CC(=O)N(c2ccccc2)C1 (stereo unspecified) | -19.2 | – | 8.2 µM [falling, partial curve]
NC(=S)N/N=C/c1ccccc1[N+](=O)[O-] | 21.5 | – | 29.1 µM [rising, single point]

Random excerpt: four compounds from above, in no set order.
SMILES | cell number change [%] | AC50 [1] | AC50 [2]
O=C(NCC(=O)N(Cc1ccccc1)C(C(=O)NCC1CCCO1)c1ccccc1)c1ccco1 (stereo unspecified) | -2.56 | – | –
CCn1ccc(C(=O)Oc2ccc(C(C)C)cc2)n1 | – | – | 6.51 µM [falling, single point]
CCCN1CCC(=O)N([C@H](CSc2ccccc2)c2ccccc2)CC1 | -23.6 | – | 29.1 µM [falling, single point]
Cc1noc(C)c1COc1ccc(C(=O)Nc2nnc(CC(C)C)s2)cc1 | -14.1 | – | 2.59 µM [falling, full curve]

The results go on:

SMILES | cell number change [%] | AC50 [1] | AC50 [2]
CC(C)(C)c1cc(NC(=O)c2c(F)cccc2Cl)n(-c2ccccc2)n1 | -24.4 | – | –
O=C(OCCN1CCOCC1)c1cccc(F)c1 | -1.01 | – | –
CC(C)[C@H](NS(=O)(=O)c1ccccc1)C(=O)OCC(=O)Nc1ccc2c(c1)OCO2 | 25.5 | 6.51 µM [rising, single point] | 0.13 µM [rising, full curve, poor fit]
Cc1cccc(N2CCN(C(=O)c3ccncc3)CC2)c1C | -20.8 | – | –
CNc1ccc2c3c(cccc13)C(=O)N(C)C2=O | -91.6 | 8.2 µM [falling, partial curve] | 2.06 µM [falling, partial curve, poor fit]
COC(=O)c1cc2cc(OC)ccc2n1C | -15 | – | 1.16 µM [falling, single point]
Nc1ncnc2nc(SCCC(=O)O)[nH]c12 | -22.7 | – | 1.46 µM [falling, partial curve]
C/C(=N\NC(=O)CSCc1ccc(Cl)cc1)c1ccc(NC(=O)c2ccccc2)cc1 | 24.5 | – | 0.13 µM [rising, full curve, poor fit]
O=C(CCSc1nnc(-c2ccco2)o1)N1CCOCC1 | -7.51 | – | 29.1 µM [falling, single point]
CCOc1ccc(C(=O)CN2CCN(S(=O)(=O)c3ccc(OC)cc3)CC2)cc1 | – | – | 29.1 µM [rising, single point]
Cc1ccc(OCC(=O)N2CCN(C(=O)c3ccc([N+](=O)[O-])cc3)CC2)cc1 | -18.8 | – | 29.1 µM [falling, single point]
CCOC(=O)CCc1c(C)c2ccc(OCc3nn[nH]n3)c(C)c2oc1=O | 0.908 | – | 0.731 µM [falling, full curve, poor fit]
CC(C)C(NC(=O)c1ccccc1)C(=O)OCC(=O)N1CCCCC1 (stereo unspecified) | -1.3 | – | –
NS(=O)(=O)c1cc(C(=O)N2CCNC(=O)C2)ccc1Cl | 22.9 | 0.0058 µM [rising, full curve, poor fit] | –
CS(=O)(=O)N(CC(=O)Nc1cccc(Cl)c1)c1ccccc1Cl | 13.5 | 4.11 µM [falling, partial curve, poor fit] | 6.51 µM [falling, partial curve, poor fit]
C=C1CCC(OC(C)=O)C2(C)CCC3C(C)C(=O)OC3C12O (stereo unspecified) | 5.63 | – | –
CCCOc1cccc(C(=O)N(Cc2cccs2)C2CCS(=O)(=O)C2)c1 (stereo unspecified) | -9.31 | – | –
O=C(O)c1cnc(-c2ccccc2)nc1Sc1ccc(Cl)cc1 | 20.7 | – | –
CCOCCCN(C(=O)Cn1nnc(-c2ccc(OC)c(OC)c2)n1)C(CC)C(=O)NC1CCCC1 (stereo unspecified) | 112 | 18.4 µM [rising, single point] | 6.51 µM [rising, single point]
C=CCN1C(=O)C(O)(CC(=O)c2ccccn2)c2ccccc21 (stereo unspecified) | – | – | 29.1 µM [falling, single point]
Cc1ccc2sc(N(CCN(C)C)C(=O)c3ccc4ccccc4c3)nc2c1C | 30.7 | 2.31 µM [rising, full curve] | –

SMILES | cell number change [%] | AC50 [1] | AC50 [2]
C/C(=N\Nc1ccc(C)c(Cl)c1)c1cccnc1 | -13.5 | – | –
Cc1c(Cl)cccc1NC(=S)NNc1ncc(C(F)(F)F)cc1Cl | -47.6 | 20.6 µM [falling, single point] | 20.6 µM [falling, single point]
COc1ccc(-c2n[nH]c(C)c2-c2cc(OC)ccc2O)cc1 | 24.1 | 0.184 µM [rising, full curve, poor fit] | 4.11 µM [rising, partial curve]
S=c1[nH]nc(-c2ccc3ccccc3n2)n1Cc1ccccc1 | -48.5 | 32.6 µM [falling, partial curve] | 0.366 µM [falling, full curve, poor fit]
CC(C)CN(C(=O)COC(=O)CN1C(=O)c2ccccc2C1=O)c1c(N)n(Cc2ccccc2)c(=O)[nH]c1=O | -6.02 | – | –
O=C(N/N=C/c1ccc(Cl)cc1Cl)c1n[nH]c2c1CCCC2 | -4.18 | – | –
O=c1cc(C(F)(F)F)[nH]c2c(C(F)(F)F)cccc12 | -18.6 | – | 0.00461 µM [falling, full curve, poor fit]
O=C(Cn1cc2c(n1)CCCCC2)NCc1ccccc1 | 21.3 | – | 16.4 µM [rising, partial curve, poor fit]
O=C(c1ccccc1Sc1ccc([N+](=O)[O-])cc1Cl)N1CCOCC1 | -5.99 | – | –
O=C(CN1C(=O)NC(Cc2c[nH]c3ccccc23)C1=O)Nc1ccc(F)c(F)c1F (stereo unspecified) | -0.846 | 0.00461 µM [rising, full curve, poor fit] | –
O=C(N1CCOCC1)N1CCN(c2ccccc2)CC1 | 39.9 | 25.9 µM [rising, partial curve, poor fit] | 29.1 µM [rising, single point]
O=C1C(c2ccc(F)cc2)N(Cc2ccc3c(c2)OCO3)C(=O)CN1C1CCCCCC1 (stereo unspecified) | – | 4.11 µM [rising, single point] | 6.51 µM [rising, single point]
O=C1COc2ccc(NC(=O)N3CCN(c4ccc(F)cc4)CC3)cc2N1 | 12.3 | – | 25.9 µM [rising, single point]
Cc1ccc(-n2cc3ccc([N+](=O)[O-])cc3n2)cc1 | -40.4 | 16.4 µM [falling, single point] | 20.6 µM [falling, single point]
C[C@H](NC(=O)c1nc[nH]c1C(=O)N(C)Cc1ccccc1)C(=O)OC(C)(C)C | – | – | 1.16 µM [falling, partial curve]
O=C1Cc2cc(NS(=O)(=O)c3cc(F)ccc3F)cc3c2N1CCC3 | – | 1.3 µM [rising, partial curve] | 0.82 µM [rising, partial curve]
COc1ccc2[nH]c(=O)c(C3c4cc(OC)c(OC)cc4CCN3C(=O)c3ccco3)cc2c1 (stereo unspecified) | -5.13 | – | 6.51 µM [falling, partial curve]
CSc1nc(O)c(C(c2ccc(C)cc2)c2c(O)nc(SC)[nH]c2=O)c(=O)[nH]1 | -12.1 | – | 18.4 µM [rising, single point]
Cc1ccccc1CN(c1ccc(C(=O)Nc2cccnc2)cc1)S(C)(=O)=O | 102 | 14.6 µM [rising, partial curve] | 2.59 µM [rising, partial curve]

From PubChem BioAssay AID2685 (National Center for Advancing Translational Sciences (NCATS), 2010)
